System: rat whole brain proteins
Test: Rat whole brain photo-cross-linking, biotin-streptavidin pulldown and LC/MS proteomics (interactome)
Assay type: binding, Sprague Dawley rat
Details: probe 50 μM; proteins also identified with control 16 removed as background
From the text: Whole brain assays were designed to assay the binding partners of 5 and 7, as well as a control for the inherent binding of the benzophenone cross-linker using molecule 16 (Figure 7). […] We chose this methodology to maximize the amount of unique hits we were likely to record. A drawback to this assay, however, is that GPCRs need highly specific extraction/purification conditions to be detected by LC-MS (or other protein detection methodologies) at the end point. Thus, by biasing our assay toward a “wide lens” to record a picture of diverse interactions, we missed the specific focus necessary to observe DRD2 and structurally related GPCRs, and we were unable to directly observe DRD2 in the proteomic analysis.
To perform the assay, the whole brain minus the olfactory bulb from an adult female Sprague Dawley rat was homogenized and treated with probes or linker control 16 at a 50 μM concentration and photo-cross-linked. A streptavidin resin was used to deplete endogenous biotin and then clicked with azido biotin, followed by streptavidin pulldown. The streptavidin beads were processed by tryptic digest, followed by LC/MS proteomic analysis. Proteins identified in both control 16 and the 5 and 7 treated samples were removed as background (for full results, see the Supporting Information, Excel File 2). […] All targets (peptides and proteins) were identified with a maximum false discovery rate of 5% or a q-value of >0.05. Most peptides and proteins were identified with a false discovery rate of 1%, q-value of >0.01 (Supporting Information, Excel File 2).
To prepare the homogenate, adult rat brain tissue was microdissected and the olfactory bulb was discarded and sliced into 1 mm pieces. The pieces were suspended in a phosphate-based NP-40 lysis buffer (150 mM NaCl, 50 mM phosphate, 1% NP-40, pH 8.0), homogenized with a handheld homogenizer (IKA T-18 digital homogenizer), and incubated on ice for 30 min. The homogenate was then cleared via centrifugation (16,000g, 20 min), and the supernatant was reserved. The total protein concentration was determined via BCA assay (Pierce) and adjusted to 6 mg/mL. Probe solutions at a concentration of 5 mM were prepared in sterile-filtered HBSS and were added to protein solutions to a final concentration of 50 μM. Samples were inverted 3× to mix and irradiated with a 365 nm UV lamp (8 W, 2 cm distance) for 30 min at room temperature. Samples were then buffer-swapped (10k MWCO, Pierce) into fresh phosphate-based NP-40 lysis buffer and freshly premixed Click-iT Kit (Invitrogen) reaction buffer (1× reaction buffer, 50 μM PC biotin azide (Click Chemistry Tools), 70:30 CuSO4/copper protectant, 1× reaction buffer additive) and incubated in the dark with constant shaking for 30 min at room temperature. […]

C#CCOc1ccc(C(=O)c2ccc(CNCCc3cccc4c3CC(=O)N4)cc2)cc1 [Compound 5, 4-(2-((4-(4-(Prop-2-yn-1-yloxy)benzoyl)benzyl)amino)ethyl)indolin-2-one]
number of proteins in common between probes 5 and 7: 58 | number of proteins unique to the probe: 81

C#CCOc1ccc(C(=O)c2ccc(CN[C@H]3CCc4nc(N)sc4C3)cc2)cc1 [Compound 7, (S)-(4-(((2-Amino-4,5,6,7-tetrahydrobenzo[d]thiazol-6-yl)amino)methyl)phenyl)(4-(prop-2-yn-1-yloxy)phenyl)methanone]
number of proteins in common between probes 5 and 7: 58 | number of proteins unique to the probe: 57

Reference: PMC9585581, “Developing Photoaffinity Probes for Dopamine Receptor D2 to Determine Targets of Parkinson’s Disease Drugs” (ACS Chemical Neuroscience, 2022)
